Data: patent publication US11292776B2, “Small molecule inhibitors of fungal hyphae and biofilm formation” (University of Sharjah, priority 2019, dated 2022)
Values after ≈ are worked out from the molar mass of the structure shown.

Test system: S. aureus
Test: Antimicrobial activity / MIC against S. aureus
Assay type: cell-based, methicillin-resistant Staphylococcus aureus (MRSA) LAC300
Details: Staphylococcus aureus, 24 h, read-out: MIC Bacteria S. aureus
Experimental: Collections of bacterial and fungal strains were obtained from the laboratory of Dr. Ibrahim at Harbor-UCLA medical center, Torrance, Calif. The bacterial strains used in this study were the Gram-negative bacterium Escherichia coli and the Gram-Positive bacterium methicillin-resistant Staphylococcus aureus (MRSA) LAC300. All bacterial strains were cultured on sterile Luria-Bertani medium (LB). The fungal strain used in this study was C. albicans SC5314. C. albicans was inoculated into sterile yeast potato dextrose broth (YPD) and incubated for 24 h at 37° C. (This was used as an initial culture for all studies described), and incubated in two different media, Yeast Nitrogen Base (YNB) broth or Roswell Park Memorial Institute medium (RPMI-1640). […]
The antimicrobial activity of compounds SR1-8 on agar plates, liquid broth media and MIC were measured according to modified Clinical and Laboratory Standards Institute (CLSI). […] The inhibition zones (mm) were measured by determining the diameter of the clear area. Similarly, the activity in liquid media was measured by incubating the aforementioned concentrations of the compounds into LB broth media inoculated with 10^5 CFU/mL in 96-well microplates at 37° C. for 24 h. The turbidity representing the microbial growth was measured by microplate reader (DYNEX technologies) at OD600. […]

How did the MIC turn out when CN[C@H](CC(C)C)C(=O)N[C@H]1C(=O)N[C@@H](CC(N)=O)C(=O)N[C@H]2C(=O)N[C@H]3C(=O)N[C@H](C(=O)N[C@H](C(=O)O)c4cc(O)cc(O)c4-c4cc3ccc4O)[C@H](O)c3ccc(c(Cl)c3)Oc3cc2cc(c3O[C@@H]2O[C@H](CO)[C@@H](O)[C@H](O)[C@H]2O[C@H]2C[C@](C)(N)[C@H](O)[C@H](C)O2)Oc2ccc(cc2Cl)[C@H]1O [Vancomycin, reference compound] was run?
The MIC was 3 µg/mL (≈ 2.07 µM).
